Test results from publication doi:10.1101/2025.02.07.636106.
No constants are given. Whether binding was seen depends on the method and setting. For some assays here: Binding seen in cells or lysates may run through a third protein. Some binding calls cover weakened binding; strength is not graded here. For some assays here: Where a sequence is shown, tags or fusion partners need not be part of it. Each block holds one binder with its values, some of them ahead of it.

By UniProt entry, the sequences of proteins in these tests, tags left out. Residues count along the entry.
UniProt Q9P0T7, residues 21-183: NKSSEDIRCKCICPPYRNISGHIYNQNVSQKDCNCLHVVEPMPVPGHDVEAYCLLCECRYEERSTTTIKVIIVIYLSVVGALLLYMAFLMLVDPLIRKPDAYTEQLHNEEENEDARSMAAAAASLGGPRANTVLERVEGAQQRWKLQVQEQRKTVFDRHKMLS

What was measured:
[1] = molecular target: T1, TMEM9B (human (endogenous in HEK293 and in H9-derived iNeurons)) (UniProt Q9NQ34); experiment: cross-linking; XL-MS: intact early endosomes purified by Endo-IP (FLAG-EEA1, HEK293EL, eluted without detergent) in KPBS, 1 mM DSSO, room temperature, 40 min; XlinkX, 5% FDR
T1 sequence: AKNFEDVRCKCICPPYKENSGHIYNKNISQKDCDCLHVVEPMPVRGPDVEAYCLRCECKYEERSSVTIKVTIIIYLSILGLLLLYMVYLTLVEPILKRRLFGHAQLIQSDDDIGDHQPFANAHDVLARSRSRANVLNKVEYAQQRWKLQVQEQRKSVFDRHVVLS

[2] = molecular target: TMEM9 (human (endogenous in HEK293)) (UniProt Q9P0T7); experiment: as above
[3] = molecular target: T1, TMEM9B (human (endogenous in HEK293 and in H9-derived iNeurons)); experiment: native gel or EMSA; BN-MS: endosomal pellets (Endo-IP, HEK293EL) extracted with 0.5% DDM in KPBS, 4-16% NativePAGE at 4°C, 48 slices, DIA-MS; co-migration of elution profiles
[4] = molecular target: TMEM9 (human (endogenous in HEK293)) (UniProt Q9P0T7); experiment: as above
TMEM9B-3xHA (human) = molecular target: T2, TMEM9B-3xHA (human) (UniProt Q9NQ34); experiment: co-IP; HEK293 cells transfected for 48 h; extraction with 0.5% DDM, 25 mM HEPES pH 7.4, 150 mM NaCl; anti-HA or anti-Flag magnetic beads, 2 h, 4°C; immunoblot
T2 sequence: T1 sequence

TMEM9-3xHA (human) = TMEM9-3xHA (human) (UniProt Q9P0T7); experiment: as above
CLCN5-3xFlag (human) = molecular target: T3, CLCN5-3xFlag (human) (UniProt P51795); experiment: as above
T3 sequence: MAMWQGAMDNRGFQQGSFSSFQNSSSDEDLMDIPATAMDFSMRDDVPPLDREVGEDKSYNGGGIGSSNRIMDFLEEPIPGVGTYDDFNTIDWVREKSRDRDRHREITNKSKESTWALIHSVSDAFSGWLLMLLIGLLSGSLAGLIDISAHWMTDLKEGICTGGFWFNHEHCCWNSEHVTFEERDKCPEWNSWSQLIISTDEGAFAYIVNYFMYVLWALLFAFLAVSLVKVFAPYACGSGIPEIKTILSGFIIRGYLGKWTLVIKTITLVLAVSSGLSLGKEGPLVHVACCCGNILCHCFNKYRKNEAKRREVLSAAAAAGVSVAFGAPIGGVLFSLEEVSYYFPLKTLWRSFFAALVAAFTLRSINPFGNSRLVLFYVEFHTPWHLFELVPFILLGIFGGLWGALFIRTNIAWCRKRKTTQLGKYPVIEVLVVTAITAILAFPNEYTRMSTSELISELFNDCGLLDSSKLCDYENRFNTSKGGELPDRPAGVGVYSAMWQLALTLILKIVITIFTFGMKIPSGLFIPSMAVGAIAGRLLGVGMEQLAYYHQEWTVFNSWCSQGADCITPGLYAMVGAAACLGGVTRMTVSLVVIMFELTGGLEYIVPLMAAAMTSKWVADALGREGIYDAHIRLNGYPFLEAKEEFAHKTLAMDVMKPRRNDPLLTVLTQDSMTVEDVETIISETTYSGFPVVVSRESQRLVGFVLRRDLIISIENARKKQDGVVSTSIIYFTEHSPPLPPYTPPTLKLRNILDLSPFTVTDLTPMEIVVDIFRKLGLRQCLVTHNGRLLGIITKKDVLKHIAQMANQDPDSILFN

CLCN3-3xFlag (human) = molecular target: T4, CLCN3-3xFlag (human) (UniProt P51790); experiment: as above
T4 sequence: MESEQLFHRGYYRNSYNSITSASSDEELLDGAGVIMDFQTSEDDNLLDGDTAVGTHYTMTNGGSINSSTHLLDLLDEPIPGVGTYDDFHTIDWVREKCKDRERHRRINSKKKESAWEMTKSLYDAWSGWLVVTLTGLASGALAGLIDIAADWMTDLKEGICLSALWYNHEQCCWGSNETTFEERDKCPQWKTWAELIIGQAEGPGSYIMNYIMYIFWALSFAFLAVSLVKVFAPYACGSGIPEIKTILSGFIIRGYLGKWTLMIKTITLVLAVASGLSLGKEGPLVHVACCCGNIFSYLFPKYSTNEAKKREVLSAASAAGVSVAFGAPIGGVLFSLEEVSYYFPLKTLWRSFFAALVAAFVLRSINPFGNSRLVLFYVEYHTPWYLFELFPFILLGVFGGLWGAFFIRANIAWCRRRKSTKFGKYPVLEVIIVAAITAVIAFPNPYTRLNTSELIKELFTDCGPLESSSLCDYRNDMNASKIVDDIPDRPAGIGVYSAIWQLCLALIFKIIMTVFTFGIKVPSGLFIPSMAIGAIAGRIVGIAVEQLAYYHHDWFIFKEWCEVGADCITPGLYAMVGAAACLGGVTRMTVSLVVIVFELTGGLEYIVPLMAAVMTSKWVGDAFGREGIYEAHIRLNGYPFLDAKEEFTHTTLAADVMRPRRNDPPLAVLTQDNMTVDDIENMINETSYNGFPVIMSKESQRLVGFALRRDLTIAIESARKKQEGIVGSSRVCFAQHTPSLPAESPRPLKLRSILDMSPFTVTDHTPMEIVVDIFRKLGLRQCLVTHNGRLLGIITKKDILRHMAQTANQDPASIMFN

binding [1]: binds
binding [2]: binds
binding [3]: binds
binding [4]: binds
B1: CLCN5 (protein, UniProt P51795 1-816)
chain: T3 sequence

binding (TMEM9B-3xHA (human)): binds
binding (TMEM9-3xHA (human)): binds
B2: CLCN5-3xFlag (protein, UniProt P51795 1-816)
chain: T3 sequence

binding (CLCN5-3xFlag (human)): binds
binding (CLCN3-3xFlag (human)): binds
B3: TMEM9B-3xHA (protein, UniProt Q9NQ34 34-198)
chain: T1 sequence
